Experimental data: PubChem BioAssay (NCATS)
The inconclusive results got no clear call from the source; some entries with a clear call stand among them for comparison. A potency beside an inconclusive call is a rough fit, not a confirmed value. The source made the active and inactive calls. Calls come from the whole dose curve; as a rule, active = well fitted curve in the direction sought with a large enough effect; inconclusive = small, poorly fitted or top-dose-only effect, or another doubt; inactive = no such curve, though single readings can be large; an effect the other way counts as inactive or inconclusive.

How the values were obtained:
[1] = Quantitative High-Throughput drug screen in 47 multiple myeloma cell lines against the NCATS MIPE library collection: JIM3_ECACC cell viability assay (AID 1918963; note: nearly all actives have a fitted effect of over 35% in size); settings: JIM3 myeloma viability, CellTiter-Glo ATP, 48 h; viability, percent of control: at 45.8 µM (top of the series) unless noted
Procedure, shortened: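 We plated 500 myeloma cells per well, pinned in MIPE 4.0 compounds, and incubated for 48 hours at 37C. ATP was then quantified with CellTiter-Glo, with DMSO and media-only wells defining 100% and 0%.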

[2] = Quantitative High-Throughput drug screen in 47 multiple myeloma cell lines against the NCATS MIPE library collection: INA6_PLB cell viability assay (AID 1918965; note: nearly all actives have a fitted effect of over 55% in size); settings: INA6 myeloma viability, CellTiter-Glo ATP luminescence, 48 h; viability (% of control): at 45.8 µM (top of the series)
Procedure, shortened: (§1)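 Viability readout: CellTiter-Glo luminescence following 5 min room-temperature incubation with reagent. Prior exposure: 48 h, 37C, humidified 5% CO2, 500 cells per well.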

[3] = Quantitative High-Throughput drug screen in 47 multiple myeloma cell lines against the NCATS MIPE library collection: JJN3_DSMZ cell viability assay (AID 1918966; note: nearly all actives have a fitted effect of over 50% in size); settings: JJN3 myeloma cells viability, CellTiter-Glo ATP, 48 h; viability, % of DMSO: at 45.8 µM (top of the series)
Procedure, shortened: (§2)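 Myeloma cell lines, 500 cells per well, exposed to MIPE 4.0 library compounds for 48 h at 37C, 5% CO2. Viability from ATP by CellTiter-Glo luminescence; normalised to DMSO (100%) and media-only (0%) wells.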

[4] = Quantitative High-Throughput drug screen in 47 multiple myeloma cell lines against the NCATS MIPE library collection: H1112_PLB cell viability assay (AID 1918967; note: nearly all actives have a fitted effect of over 30% in size); settings: H1112 myeloma cells viability, ATP luminescence, 48 h; viability: at 45.8 µM (top of the series)
Procedure, shortened: as §2

[5] = Quantitative High-Throughput drug screen in 47 multiple myeloma cell lines against the NCATS MIPE library collection: KMS27_JCRB cell viability assay (AID 1918970); settings: KMS27 myeloma cells, CellTiter-Glo ATP viability, 48 h; viability (% of DMSO): at 45.8 µM (top of the series); note: nearly all actives have a fitted effect of over 30% in size
Procedure, shortened: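 Luminescent ATP read-out (CellTiter-Glo, 5 min at room temperature) after 48 h compound exposure of 500 KMS27_JCRB cells per well; DMSO wells define full viability and media-only wells zero.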

[6] = Quantitative High-Throughput drug screen in 47 multiple myeloma cell lines against the NCATS MIPE library collection: KMS12BM_JCRB cell viability assay (AID 1918971); note: nearly all actives have a fitted effect of over 35% in size
Procedure, shortened: (§3)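 Luminescent ATP measurement with CellTiter-Glo gives viability, scaled between DMSO-only wells (100%) and media-only wells (0%). Cells, 500 per well, faced library compounds for 48 hours at 37C.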

[7] = Quantitative High-Throughput drug screen in 47 multiple myeloma cell lines against the NCATS MIPE library collection: KMS12PE_JCRB cell viability assay (AID 1918972); settings: KMS12PE myeloma viability, CellTiter-Glo ATP, 48 h; viability: at 45.8 µM (top of the series); note: nearly all actives have a fitted effect of over 30% in size
Procedure, shortened: as §1

[8] = Quantitative High-Throughput drug screen in 47 multiple myeloma cell lines against the NCATS MIPE library collection: KMS20_JCRB cell viability assay (AID 1918973); settings: CellTiter-Glo ATP, 48 h; viability (% of DMSO): at 45.8 µM (top of the series); note: nearly all actives have a fitted effect of over 45% in size
Procedure, shortened: as §2

[9] = Quantitative High-Throughput drug screen in 47 multiple myeloma cell lines against the NCATS MIPE library collection: KMS26_JCRB cell viability assay (AID 1918975); settings: KMS26 myeloma cells viability, CellTiter-Glo ATP, 48 h; viability (% of DMSO): at 45.8 µM (top of the series); note: nearly all actives have a fitted effect of over 45% in size
Procedure, shortened: as §3

[10] = Quantitative High-Throughput drug screen in 47 multiple myeloma cell lines against the NCATS MIPE library collection: MMM1_PLB cell viability assay (AID 1918976); note: nearly all actives have a fitted effect of over 35% in size
Procedure, shortened: (§4)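 Cells were exposed to library compounds for 48 hours, after which ATP was measured by CellTiter-Glo. Signal was taken as median relative luminescence units.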

[11] = Quantitative High-Throughput drug screen in 47 multiple myeloma cell lines against the NCATS MIPE library collection: MOLP8_DSMZ cell viability assay (AID 1918977); settings: MOLP8 myeloma viability, CellTiter-Glo ATP luminescence, 48 h; viability (% of control): at 45.8 µM (top of the series); note: nearly all actives have a fitted effect of over 45% in size
Procedure, shortened: as §4

[12] = Quantitative High-Throughput drug screen in 47 multiple myeloma cell lines against the NCATS MIPE library collection: MM1S_ATCC cell viability assay (AID 1918980); note: nearly all actives have a fitted effect of over 45% in size
Procedure, shortened: as §4

[13] = Quantitative High-Throughput drug screen in 47 multiple myeloma cell lines against the NCATS MIPE library collection: MM1R_ATCC cell viability assay (AID 1918981); note: nearly all actives have a fitted effect of over 35% in size
Procedure, shortened: as §4

[14] = Quantitative High-Throughput drug screen in 47 multiple myeloma cell lines against the NCATS MIPE library collection: KMS28PE_JCRB cell viability assay (AID 1918983); note: nearly all actives have a fitted effect of over 35% in size
Procedure, shortened: as §4

[15] = Quantitative High-Throughput drug screen in 47 multiple myeloma cell lines against the NCATS MIPE library collection: JIM1_ECACC cell viability assay (AID 1918964); settings: JIM1 myeloma viability, CellTiter-Glo ATP luminescence, 48 h; viability (% of DMSO): at 45.8 µM (top of the series)
Procedure, shortened: as §2

[16] = Quantitative High-Throughput drug screen in 47 multiple myeloma cell lines against the NCATS MIPE library collection: Karpas25_ECACC cell viability assay (AID 1918968; note: nearly all actives have a fitted effect of over 35% in size); settings: Karpas25 myeloma viability, CellTiter-Glo ATP, 48 h; viability (% of control): at 45.8 µM (top of the series)
Procedure, shortened: as §2

[17] = Quantitative High-Throughput drug screen in 47 multiple myeloma cell lines against the NCATS MIPE library collection: NCIH929_DSMZ cell viability assay (AID 1918978); note: nearly all actives have a fitted effect of over 35% in size
Procedure, shortened: as §4

[18] = Quantitative High-Throughput drug screen in 47 multiple myeloma cell lines against the NCATS MIPE library collection: LP1_DSMZ cell viability assay (AID 1918982); note: nearly all actives have a fitted effect of over 35% in size
Procedure, shortened: as §4

[19] = Quantitative High-Throughput drug screen in 47 multiple myeloma cell lines against the NCATS MIPE library collection: KMS21BM_JCRB cell viability assay (AID 1918974); settings: ATP luminescence, 48 h; viability: at 45.8 µM (top of the series) unless noted
Procedure, shortened: as §2

[20] = Quantitative High-Throughput drug screen in 47 multiple myeloma cell lines against the NCATS MIPE library collection: OCIMY1_PLB cell viability assay (AID 1918979); note: nearly all actives have a fitted effect of over 35% in size
Procedure, shortened: as §4
Potency is the fitted concentration of half-maximal effect.

N#Cc1c(N(CC(=O)O)CC(=O)O)sc(C(=O)O)c1CC(=O)O
inactive: Potency [14]
inconclusive: viability, percent of control [1] 75.9% [cytotoxic] | Potency [3] 18.7 µM [cytotoxic, partial curve, poor fit] | Potency [4] 37.2 µM [cytotoxic, single point] | Potency [5] 5.9 µM [cytotoxic, full curve] | Potency [6] 0.0526 µM [rising, full curve, poor fit] | Potency [7] 8.33 µM [cytotoxic, full curve] | Potency [9] 16.6 µM [cytotoxic, partial curve, poor fit] | Potency [10] 0.0019 µM [rising, full curve] | Potency [11] 23.5 µM [cytotoxic, partial curve, poor fit] | Potency [12] 18.7 µM [cytotoxic, partial curve, poor fit] | Potency [13] 37.2 µM [cytotoxic, single point]
active: Potency [2] 14.8 µM | Potency [8] 16.6 µM

CN1C(C(=O)Nc2ccccn2)=C(O)c2ccccc2S1(=O)=O
inactive: Potency [3] | Potency [4] | Potency [6] | Potency [7] | Potency [11] | Potency [17] | Potency [18]
inconclusive: Potency [15] 0.0015 µM [cytotoxic, full curve, poor fit] | Potency [2] 4.18 µM [rising, partial curve, poor fit] | Potency [16] 0.0118 µM [rising, full curve, poor fit] | Potency [5] 2.96 µM [cytotoxic, full curve] | Potency [12] 4.69 µM [cytotoxic, full curve, poor fit] | Potency [13] 37.2 µM [cytotoxic, single point]

Clc1ccc(CCC(Cn2ccnc2)Sc2c(Cl)cccc2Cl)cc1 (stereo unspecified)
active: Potency [5] 18.7 µM | Potency [19] 23.5 µM
inconclusive: Potency [1] 26.4 µM [cytotoxic, single point] | Potency [2] 33.2 µM [cytotoxic, single point] | Potency [4] 29.6 µM [cytotoxic, single point] | Potency [6] 26.4 µM [cytotoxic, single point] | Potency [8] 26.4 µM [cytotoxic, single point] | Potency [9] 23.5 µM [cytotoxic, single point] | Potency [11] 20.9 µM [cytotoxic, partial curve, poor fit] | Potency [17] 23.5 µM [cytotoxic, single point] | Potency [20] 29.6 µM [cytotoxic, single point] | Potency [12] 37.2 µM [cytotoxic, single point] | Potency [13] 20.9 µM [cytotoxic, partial curve] | Potency [18] 23.5 µM [cytotoxic, partial curve] | Potency [14] 26.4 µM [cytotoxic, single point]

CC1(C)[C@H](C(=O)O)N2C(=O)C[C@H]2S1(=O)=O
inconclusive: Potency [3] 0.001 µM [cytotoxic] | Potency [5] 0.105 µM [cytotoxic, partial curve, poor fit] | Potency [8] 0.059 µM [cytotoxic, full curve, poor fit] | Potency [19] 0.0083 µM [cytotoxic, full curve, poor fit] | Potency [10] 0.526 µM [cytotoxic, full curve, poor fit] | Potency [11] 0.0526 µM [cytotoxic, full curve, poor fit] | Potency [20] 11.8 µM [rising, single point] | Potency [14] 10.5 µM [cytotoxic, partial curve, poor fit]
inactive: Potency [15] | Potency [2] | Potency [4] | Potency [16] | Potency [6] | Potency [9] | Potency [17] | Potency [13]

CC(C)(C)c1nc(-c2cccc(NS(=O)(=O)c3c(F)cccc3F)c2F)c(-c2ccnc(N)n2)s1
inconclusive: Potency [1] 14.8 µM [cytotoxic, partial curve] | Potency [15] 1.05 µM [cytotoxic, full curve, poor fit] | Potency [6] 1.32 µM [cytotoxic, full curve, poor fit] | Potency [8] 7.43 µM [cytotoxic, partial curve, poor fit] | Potency [10] 18.7 µM [cytotoxic, partial curve, poor fit]
active: Potency [5] 16.6 µM | Potency [19] 2.35 µM | Potency [11] 5.9 µM

COc1cc(C(=O)NC2CCN(C)CC2)ccc1Nc1ncc2c(n1)N(C1CCCC1)CCC(=O)N2C(C)C
active: Potency [1] 20.9 µM | Potency [8] 16.6 µM | Potency [19] 3.72 µM
inconclusive: Potency [6] 33.2 µM [cytotoxic, single point] | Potency [9] 33.2 µM [cytotoxic, partial curve, poor fit] | Potency [11] 18.7 µM [cytotoxic, partial curve] | Potency [20] 20.9 µM [cytotoxic, single point] | Potency [13] 20.9 µM [cytotoxic, partial curve, poor fit] | Potency [18] 18.7 µM [cytotoxic, partial curve] | Potency [14] 29.6 µM [cytotoxic, single point]

O=C(Nc1cccnc1)N1CCC(Cc2cccc(Oc3ccc(C(F)(F)F)cn3)c2)CC1
inconclusive: Potency [1] 16.6 µM [cytotoxic, partial curve] | Potency [15] 20.9 µM [cytotoxic, partial curve, poor fit] | Potency [8] 23.5 µM [cytotoxic, partial curve, poor fit] | Potency [9] 23.5 µM [cytotoxic, single point] | Potency [11] 18.7 µM [cytotoxic, partial curve, poor fit] | Potency [17] 16.6 µM [cytotoxic, partial curve] | Potency [20] 11.8 µM [cytotoxic, partial curve, poor fit] | Potency [18] 13.2 µM [cytotoxic, partial curve, poor fit]
active: Potency [6] 13.2 µM | Potency [19] 9.35 µM | Potency [10] 10.5 µM | Potency [14] 16.6 µM

O=c1[nH]cnc2c1ncn2[C@H]1CC[C@@H](CO)O1
inactive: Potency [1] | Potency [4] | Potency [9] | Potency [11] | Potency [18]
inconclusive: Potency [2] 4.18 µM [rising, partial curve, poor fit] | Potency [3] 0.296 µM [rising, full curve, poor fit] | Potency [5] 9.35 µM [cytotoxic, partial curve, poor fit] | Potency [6] 20.9 µM [rising, partial curve] | Potency [8] 0.105 µM [rising, full curve, poor fit] | Potency [10] 0.0013 µM [rising, full curve, poor fit] | Potency [14] 3.32 µM [rising, full curve, poor fit]

O=C(CCc1ccc(O)cc1)c1c(O)cc(O)cc1O
inconclusive: Potency [1] 0.418 µM [cytotoxic, full curve] | Potency [7] 0.935 µM [cytotoxic, full curve] | Potency [8] 0.187 µM [cytotoxic, full curve, poor fit] | Potency [11] 4.18 µM [cytotoxic, full curve, poor fit] | Potency [17] 0.166 µM [cytotoxic, full curve] | Potency [20] 2.64 µM [cytotoxic, full curve] | Potency [12] 7.43 µM [cytotoxic, partial curve, poor fit] | Potency [18] 2.96 µM [cytotoxic, full curve]
active: Potency [16] 0.187 µM

CC(COc1ccccc1)N(CCCl)Cc1ccccc1 (stereo unspecified)
inconclusive: Potency [15] 20.9 µM [cytotoxic, partial curve, poor fit] | Potency [4] 33.2 µM [cytotoxic, partial curve, poor fit] | Potency [5] 16.6 µM [cytotoxic, partial curve, poor fit] | Potency [6] 29.6 µM [cytotoxic, single point] | Potency [7] 29.6 µM [cytotoxic, single point] | Potency [8] 11.8 µM [rising, single point] | Potency [9] 33.2 µM [cytotoxic, single point] | Potency [10] 33.2 µM [cytotoxic, partial curve, poor fit] | Potency [11] 29.6 µM [cytotoxic, single point] | Potency [20] 0.001 µM | Potency [12] 4.18 µM [rising, partial curve] | Potency [13] 37.2 µM [cytotoxic, single point] | Potency [14] 18.7 µM [cytotoxic, single point]
inactive: Potency [2] | Potency [3] | Potency [16] | Potency [18]

CN(C)CCOc1cc(-c2cn[nH]c2)ccc1NC(=O)C1COc2ccccc2O1 (stereo unspecified)
inactive: Potency [4] | Potency [20]
inconclusive: Potency [15] 16.6 µM [rising, partial curve, poor fit] | Potency [3] 4.69 µM [cytotoxic, full curve, poor fit] | Potency [16] 26.4 µM [cytotoxic, single point] | Potency [5] 0.0033 µM [cytotoxic, full curve, poor fit] | Potency [6] 10.5 µM [cytotoxic, full curve, poor fit] | Potency [7] 2.96 µM [cytotoxic, full curve] | Potency [8] 0.166 µM [cytotoxic, full curve, poor fit] | Potency [9] 0.0148 µM [rising, full curve, poor fit] | Potency [10] 0.0023 µM [rising, full curve, poor fit] | Potency [12] 20.9 µM [cytotoxic, partial curve] | Potency [18] 37.2 µM [cytotoxic, single point]
active: Potency [2] 13.2 µM | Potency [13] 13.2 µM
